According to PubChem BioAssay AID504847 (National Center for Advancing Translational Sciences (NCATS), 2011):
The campaign covered roughly 400,000 compounds. About 3,700 (0.93%) were called active. The shares of active, inactive and inconclusive entries below differ from those in the screen. Calls come from the whole dose curve; as a rule, active = well fitted inhibition curve with a large enough effect; inconclusive = small, poorly fitted or top-dose-only effect, or another doubt; inactive = no such curve, though single readings can be large or run the other way. Potencies of inconclusive entries are doubtful fits and often do not repeat. A structure can be active in one record and inactive in another.

The chains behind the UniProt entries cited, without tags or fusion partners. Where a name states a change or a piece, a line headed by the entry shows the natural chain unless it says otherwise.
UniProt P11473: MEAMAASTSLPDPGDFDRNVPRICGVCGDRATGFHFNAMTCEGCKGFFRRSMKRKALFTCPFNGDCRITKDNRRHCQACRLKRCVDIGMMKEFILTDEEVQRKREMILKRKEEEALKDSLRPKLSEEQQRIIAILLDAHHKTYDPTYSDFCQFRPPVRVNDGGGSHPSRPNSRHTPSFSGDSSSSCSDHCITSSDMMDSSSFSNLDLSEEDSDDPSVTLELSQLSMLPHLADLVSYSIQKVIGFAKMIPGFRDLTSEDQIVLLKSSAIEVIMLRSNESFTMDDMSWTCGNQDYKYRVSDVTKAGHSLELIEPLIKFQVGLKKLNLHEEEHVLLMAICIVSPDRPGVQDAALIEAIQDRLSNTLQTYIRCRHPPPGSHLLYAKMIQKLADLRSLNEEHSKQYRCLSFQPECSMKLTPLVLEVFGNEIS

target: Vitamin D3 receptor (Homo sapiens) (UniProt P11473); experiment: Inhibitors of the vitamin D receptor (VDR): qHTS; details: VDR-SRC2-3 peptide fluorescence polarization, 2 h; max response, negative = inhibition: hits give low values
In short: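 Measured by FP: displacement of SRC2-3 coactivator peptide from VDR by library compounds, following a two-hour ambient incubation.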
% is set by controls: 0 for no effect and ±100 for the full control effect; potency is the fitted concentration of half-maximal effect.

Structure (SMILES)	Potency	max response, negative = inhibition
CCC(=O)Nc1sc(Cc2ccc3c(c2)OCO3)c(C)c1C(N)=O	inconclusive: 89.1 µM [inhibitor, single point]	–
COCc1c(C(=O)N/N=C/c2ccco2)nnn1-c1nonc1N	inconclusive: 79.4 µM [inhibitor, single point]	–
COc1ccc(OCc2cc(C(=O)N(C)CCC3CCOCC3)no2)c(Cl)c1	inconclusive: 22.4 µM [inhibitor, partial curve, poor fit]	–
CCOC(=O)c1scc(-c2ccccc2)c1S(=O)(=O)N1CCN(c2ccccc2OC)CC1	–	inactive: 9.76%
CN1/C(=C\C(=S)NC(=O)c2ccccc2Cl)C(C)(C)c2ccccc21	–	inactive: 16.3%
C=CCNC(=O)c1sc(=S)n(-c2ccc(C(=O)OCC)cc2)c1N	inconclusive: 100 µM [inhibitor, single point]	–
COC(=O)c1sc(S(=O)(=O)Nc2c(C)nn(C)c2C)c(C(=O)OC)c1C	–	inactive: 11.2%
COc1ccccc1C1CC(c2ccco2)=NN1S(C)(=O)=O (configuration not stated)	inconclusive: 89.1 µM [inhibitor, single point]	–
O=C1c2ccccc2C(=O)N1/N=C/c1ccc(O)c(O)c1O	active: 79.4 µM	–
COc1ccc(C(C(=O)NC2CCCC2)N(C(=O)c2ccco2)c2ccccc2OC)cc1 (configuration not stated)	inconclusive: 25.1 µM [inhibitor, partial curve, poor fit]	–
O=C(Nc1cc(S(=O)(=O)N2CCOCC2)ccc1N1CCCCC1)c1ccccc1Br	active: 89.1 µM	–
COc1ccc(CN(Cc2ccco2)c2cnc(S(C)(=O)=O)nc2C(=O)Nc2ccc(C)c(C)c2)cc1	–	inactive: 1.28%
COc1ccc(C(=O)[C@H]2[C@H]3C(=O)N(c4ccccc4)C(=O)[C@H]3C3C=CC=NN32)cc1 (some centres not stated)	–	inactive: 0%
c1ccc2sc(N3CCN(Cc4nnnn4CC4CCCO4)CC3)nc2c1 (configuration not stated)	–	inactive: -5.49%
Cc1cc2c(cc3c(=O)n(CC(=O)NCc4ccccc4Br)ncn32)s1	–	inactive: 1.73%
O=C(/C=C/c1ccccc1)c1ccc2c(c1)OCCCCO2	inconclusive: 63.1 µM [inhibitor, partial curve, poor fit]	–
Cc1ccc(Oc2nc3ccccn3c(=O)c2/C=C(\C#N)c2nc3ccccc3s2)c(C)c1	inconclusive: 56.2 µM [inhibitor, partial curve, poor fit]	–
Cc1ccc(NC(=O)c2nc[nH]c2C(=O)NCCCCCCNC(=O)c2[nH]cnc2C(=O)Nc2ccc(C)cc2)cc1	–	inactive: -5.24%
Cc1cccc(/N=C/c2nc(-c3ccccc3Br)oc2O)n1	inconclusive: 0.631 µM [inhibitor, full curve, poor fit]	–
Cc1cc(NS(=O)(=O)c2ccccc2)ccc1NS(=O)(=O)c1ccccc1	–	inactive: 2.93%
O=C(Nc1cc(S(=O)(=O)N2CCCCC2)ccc1Cl)c1ccccc1NS(=O)(=O)c1ccc(F)cc1	–	inactive: -2.15%

Structure (SMILES)	Potency	max response, negative = inhibition
COCCCNc1oc(COc2ccc(Cl)cc2Cl)nc1C#N	inconclusive: 89.1 µM [inhibitor, partial curve, poor fit]	–
CSC1=NSC2=NC(=O)/C(=C/c3coc4ccc(O)cc4c3=O)C(=N)N12	inconclusive: 70.8 µM [inhibitor, partial curve, poor fit]	–
COc1ccccc1N1CCN(S(=O)(=O)CCNC(=O)Cc2ccc(F)cc2)CC1	inconclusive: 89.1 µM [inhibitor, single point]	–
Cc1ccccc1-c1cc(C(=O)N2CCCC2)c2ccccc2n1	inconclusive: 70.8 µM [inhibitor, partial curve]	–
COC(=O)C1CCN(C(c2ccccc2Cl)c2sc3nc(-c4ccco4)nn3c2O)CC1 (configuration not stated)	–	inactive: 6.29%
CCn1c(SCC(=O)NC2CCS(=O)(=O)C2)nnc1-c1ccccc1 (configuration not stated)	inconclusive: 89.1 µM [inhibitor, single point]	–
CCOC(=O)C(C)Sc1nc2c(c(=O)[nH]c(=O)n2C)n1C/C=C(/C)Cl (configuration not stated)	inconclusive: 56.2 µM [inhibitor, partial curve, poor fit]	–
O=C(CCN1CCOCC1)c1ccc2c(c1)OCCO2	active: 56.2 µM	–
CC(=O)[C@H]1[C@H]([C@H](O)[C@H](O)CO)O[C@](O)(C(=O)O)C[C@@H]1O	–	inactive: -8.19%
CO/N=C(/C(=O)N[C@@H]1C(=O)N2C(C(=O)O)=C(CSc3cnns3)CS[C@H]12)c1csc(N)n1	active: 35.5 µM	–
Cc1ccccc1-c1nccc(-n2ccnc2)n1	inconclusive: 50.1 µM [inhibitor, partial curve]	–
COc1ccc([N+](=O)[O-])cc1NC(=O)c1ccc(CN(c2ccccc2)S(C)(=O)=O)cc1	–	inactive: -11.9%
Cc1c(C(=O)Oc2cc(N)n(S(C)(=O)=O)n2)cccc1[N+](=O)[O-]	active: 79.4 µM	–
O=C(CCN1C(=O)c2ccccc2C1=O)Nc1ccc(S(=O)(=O)N2CCOCC2)cc1	inconclusive: 50.1 µM [inhibitor, partial curve, poor fit]	–
COc1cc(C(=O)O/N=C2\C=CC(=O)C(C)=C2)cc(OC)c1OC	inconclusive: 50.1 µM [inhibitor, partial curve, poor fit]	–
Cc1ccc(NC(=O)c2ccc(COc3ccc4c(c3)CCC4)cc2)c(C)c1	inconclusive: 100 µM [inhibitor, single point]	–
O=C(Nc1ccccc1)C1=C[C@@H](C2CCCCC2)C[C@@H](OCc2ccc(CO)cc2)O1	inconclusive: 63.1 µM [inhibitor, partial curve, poor fit]	–
Cc1cccc(CSc2nc3c(c(-c4cccs4)c2C#N)CN(C)CC3)c1	inconclusive: 89.1 µM [inhibitor, partial curve]	–
CCN(CC)CCC(=O)N1c2ccccc2Sc2ccc(Cl)cc21	active: 50.1 µM	–
CCOC(=O)C1CCN(C(=O)c2n[nH]c(=O)c3ccccc23)CC1	–	inactive: -3.18%
CNc1ccc(/C=C/C(=O)c2ccc(C)cc2)cc1[N+](=O)[O-]	inconclusive: 25.1 µM [inhibitor, partial curve, poor fit]	–

A draw from above in order of length of the SMILES, descending.
Structure (SMILES)	Potency	max response, negative = inhibition
Cc1ccc(NC(=O)c2nc[nH]c2C(=O)NCCCCCCNC(=O)c2[nH]cnc2C(=O)Nc2ccc(C)cc2)cc1	–	inactive: -5.24%
COc1ccc(CN(Cc2ccco2)c2cnc(S(C)(=O)=O)nc2C(=O)Nc2ccc(C)c(C)c2)cc1	–	inactive: 1.28%
COc1ccc([N+](=O)[O-])cc1NC(=O)c1ccc(CN(c2ccccc2)S(C)(=O)=O)cc1	–	inactive: -11.9%
Cc1ccc(Oc2nc3ccccn3c(=O)c2/C=C(\C#N)c2nc3ccccc3s2)c(C)c1	inconclusive: 56.2 µM [inhibitor, partial curve, poor fit]	–
CCOC(=O)C(C)Sc1nc2c(c(=O)[nH]c(=O)n2C)n1C/C=C(/C)Cl (configuration not stated)	inconclusive: 56.2 µM [inhibitor, partial curve, poor fit]	–
COc1ccccc1N1CCN(S(=O)(=O)CCNC(=O)Cc2ccc(F)cc2)CC1	inconclusive: 89.1 µM [inhibitor, single point]	–
Cc1cc(NS(=O)(=O)c2ccccc2)ccc1NS(=O)(=O)c1ccccc1	–	inactive: 2.93%
COc1ccc(OCc2cc(C(=O)N(C)CCC3CCOCC3)no2)c(Cl)c1	inconclusive: 22.4 µM [inhibitor, partial curve, poor fit]	–
COc1ccccc1C1CC(c2ccco2)=NN1S(C)(=O)=O (configuration not stated)	inconclusive: 89.1 µM [inhibitor, single point]	–
COCCCNc1oc(COc2ccc(Cl)cc2Cl)nc1C#N	inconclusive: 89.1 µM [inhibitor, partial curve, poor fit]	–
